Source: PMC12040169 (PLOS Biology, 2025)
Some of the results follow.

Test system: T1, CTL2-GFP (C. trachomatis L2/434/Bu, GFP-expressing)
T1 construct: L2/434/Bu, GFP-expressing
Parameters: species or system HeLa; Intracellular C. trachomatis growth in HeLa cells, bulk GFP fluorescence relative to DMSO
Conditions: bulk GFP, single well; 28.5 h, 10 µM; inhibitor

Compound | % of control remaining
CCCc1cc(CNC(=O)c2cnn(-c3ccc(F)cc3)c2)on1 [CBK282463] | 140.635%
CC(C)CCOc1nccnc1-c1ccc2c(c1)OCO2 [CBK106711] | 120.044%
O=C(O)c1cccc(Sc2cc(N3CCCC3)ncn2)c1 [CBK093586] | 107.987%
O=C1CC(C(=O)Nc2cccc(C(=O)O)c2)C(c2ccccc2)O1 (centres unmarked) [CBK293968] | 170.581%
NC(=O)CN1CCC(Oc2cncc(OCC3COc4ccccc4O3)n2)C1 (centres unmarked) [CBK084372] | 107.674%
CC(C)c1nccn1CCCNC(=O)N1CCCC(c2ccncn2)C1 (centres unmarked) [CBK307448] | 153.053%
O=C(N[C@H]1C[C@H]2C(=O)NC[C@@H](CCC(=O)N3CCCCC3)N2C1)c1cccs1 [CBK289010] | 129.442%
CCN(CC)CCN1C(=O)C(O)=C(C(=O)c2ccc3c(c2)OCO3)C1c1cccnc1 (centres unmarked) [CBK266465] | 152.497%
c1ccc(Cn2c(-c3ccccc3)c(-c3ccccc3)c3c2ncn2nc(-c4cccnc4)nc32)cc1 [CBK265359] | 110.802%
CCOC(=O)c1cc(CC)sc1NC(=O)c1cc2ccccc2o1 [CBK267596] | 131.497%
O=c1cc(CO)oc(CN2CCSCC2)c1O [CBK288404] | 133.536%
O=S(=O)(NCC1CCCO1)c1cccs1 (centres unmarked) [CBK044263] | 85.4326%
COc1ccc(C(=O)Nc2ccc3oc(-c4cccc(C)c4)nc3c2)cc1Br [CBK261944] | 100%
O=C(O)CCCn1cc(NC(=O)c2cccs2)cn1 [CBK270122] | 138.63%
O=C(C1=C(O)C(=O)N(CCCN2CCOCC2)C1c1cccnc1)c1ccco1 (centres unmarked) [CBK264528] | 132.7%
CCN1CCCC1CNC(=O)C1(O)c2ccccc2NC(=O)N1c1ccccc1 (centres unmarked) [CBK288554] | 102.134%
Cn1ccc(C2=C(N)C(C#N)C3=C(CC(C)(C)CC3=O)O2)c1 (centres unmarked) [CBK022168] | 156.598%
COc1nnc(-c2ccc(C)cc2)c2ccccc12 [CBK263466] | 94.2289%
CCCn1c(C)nnc1CN(CC1CCCO1)C1CCC(C)CC1 (centres unmarked) [CBK304485] | 122.392%
Cc1cc(C)cc(NC(=O)C2C3C=CC(O3)C2C(=O)O)c1 (centres unmarked) [CBK262642] | 115.172%
O=C(CCN1C(=O)/C(=C\c2cccs2)SC1=S)Nc1cc(Cl)ccc1O [CBK263643] | 116.627%
CCC1SC2=NC(C)=C(C(=O)OCc3ccccc3)C(c3ccccc3)N2C1=O (centres unmarked) [CBK293960] | 162.269%
CCN(Cc1ccc(OC)c(OC)c1)C(=O)CSc1nc(CC(=O)O)cs1 [CBK296643] | 94.9795%
Cc1ccc(N(CC(=O)O)S(C)(=O)=O)cc1C [CBK286978] | 135.086%
Cn1c(SCC(=O)Nc2cccc(C(=O)O)c2)nnc1-c1ccccc1 [CBK300479] | 136.292%
O=C(C1CC1)N1C[C@H]2CCCN(S(=O)(=O)c3cccs3)[C@H]2C1 [CBK282255] | 173.566%
CCN1CC(C(=O)Nc2nc3c(s2)CCCCCC3)CC1=O (centres unmarked) [CBK281526] | 149.594%

Compound | % of control remaining
O=C(Nc1snnc1-c1ccc(Cl)cc1)c1ccc(OC(F)(F)F)cc1 [CBK153247] | 1.735%
CCc1cc(C(=O)NC(Cn2ccnc2)C(C)(C)C)cc(=O)[nH]1 (centres unmarked) [CBK304410] | 155.177%
OCCCNc1nccnc1-c1cccc(F)c1 [CBK088976] | 197.199%
COc1cc(C(C)c2cc3c(cc2OCC(=O)O)OCO3)cc(OC)c1OC (centres unmarked) [CBK200109] | 110.802%
CCNC(=O)N1CC2(CCN(CCOc3ccc(OC)cc3)CC2)c2ccccc21 [CBK144600T] | 69.5214%
Cn1cc(CN2CCC(c3cncc(-c4cccc(C(F)(F)F)c4)n3)CC2)cn1 [CBK286150] | 126.428%
CC(=O)Nc1ccc(-c2nc3c4ccccc4c4ccc(I)cc4c3[nH]2)cc1 [CBK262667] | 124.478%
O=C(Nc1ccncc1)OCCNC(=O)c1ccncc1 [CBK262150] | 100%
CC(=O)N/N=C(\C)c1ccc(-n2cnnn2)cc1 [CBK261252] | 100%
O=C(CO)N1CC2(CCN(CCCn3c(=O)[nH]c4ccccc43)CC2)c2ccccc21 [CBK131506] | 101.731%
COc1ccc(CC(=O)Nc2ccc3n(c2=O)C[C@H]2C[C@@H]3CN(C(C)=O)C2)cc1 [CBK289203] | 137.6%
CCN(C)Cc1cccc(CNc2ncnc3c2cnn3CCC#N)c1 [CBK305959] | 143.375%
OC(CNCC1COc2ccccc2O1)C(F)(F)F (centres unmarked) [CBK074834] | 99.3456%
Cc1nn(C)cc1C(C)NC(=O)C1CC2C=CC1C21CC1 (centres unmarked) [CBK282088] | 125.163%
COc1ccc(Br)c(C(=O)Nc2cc(N3CCNCC3)c3occc3c2)c1 [CBK061757C] | 102.326%
CC(=O)NC(NC(=S)Nc1sc2c(c1C#N)CCCC2)C(Cl)(Cl)Cl (centres unmarked) [CBK261053] | 110.048%
O=C(Oc1ccc(-n2ccnc2)cc1)c1ccc(-c2ccccc2)cc1 [CBK095145] | 100%
c1nncn1/N=C1/CCCc2nonc21 [CBK261065] | 105.474%
O=C(Nc1ccc(Cc2ccc(NC(=O)c3ccccc3F)c(O)c2)cc1O)c1ccccc1F [CBK268366] | 138.883%
CC(Oc1ccccc1)C(=O)Nc1c[nH]c(=O)[nH]c1=O (centres unmarked) [CBK266524] | 129.7%
O=S(=O)(Nc1ccccn1)N1CCOCC1 [CBK269391] | 141.649%
Cc1cc(C(=O)O)cc(S(=O)(=O)N2CCOCC2)c1C [CBK264497] | 133.401%
O=C(O)CC1(CC(=O)N2CC[C@H]3NC(=O)N(c4ccc(F)cc4)C(=O)[C@H]32)CCCC1 [CBK289327] | 119.919%
O=C(CN1CCCCCC1)Nc1sc2c(c1C(=O)Nc1ccc(Br)cc1)CCC2 [CBK265076] | 91.6441%
CNc1ncnc2c1ncn2C1CC(O)C(CO)O1 (centres unmarked) [CBK201308] | 186.255%
COc1cccc2ncn(CCc3n[nH]c(N)n3)c(=O)c12 [CBK307301] | 157.914%
Cc1nc(C(Cc2ccsc2)NC(=O)c2cnn(C)c2)sc1C (centres unmarked) [CBK284779] | 81.2245%

Reprinted at random: five compounds from above, in no set order.
Compound | % of control remaining
COc1ccc(Br)c(C(=O)Nc2cc(N3CCNCC3)c3occc3c2)c1 [CBK061757C] | 102.326%
O=C(O)CC1(CC(=O)N2CC[C@H]3NC(=O)N(c4ccc(F)cc4)C(=O)[C@H]32)CCCC1 [CBK289327] | 119.919%
O=C(Oc1ccc(-n2ccnc2)cc1)c1ccc(-c2ccccc2)cc1 [CBK095145] | 100%
CNc1ncnc2c1ncn2C1CC(O)C(CO)O1 (centres unmarked) [CBK201308] | 186.255%
OC(CNCC1COc2ccccc2O1)C(F)(F)F (centres unmarked) [CBK074834] | 99.3456%

Going on with the list:

Compound | % of control remaining
COc1ccc(C(N2CCOCC2)N2CCOCC2)cc1 [CBK261002] | 112.27%
COCCSc1nnc(NS(=O)(=O)Cc2ccccc2)s1 [CBK267535] | 140.42%
COc1cc(OC)nc(CN2CCOC3(CCN(C(=O)OCc4ccccc4)CC3)C2)n1 [CBK161101T] | 123.47%
Cc1ccc(S(=O)(=O)Nc2ccc3[nH]ccc3c2)cc1 [CBK153519] | 73.9904%
O=C1CC(c2cccnc2)c2sc(N3CCOCC3)nc2N1 (centres unmarked) [CBK287927] | 142.265%
COc1cccc(CSC2=C(C#N)C(c3cccs3)C(C(=O)Nc3ccccc3)=C(C)N2)c1 (centres unmarked) [CBK267458] | 135.34%
COc1cc(S(=O)(=O)Oc2ccc(OCc3ccccc3)cc2)ccc1Cl [CBK264132] | 109.108%
O=S(=O)(c1ccccc1)N1CCC(c2cc3ncccc3[nH]2)CC1 [CBK283397] | 96.8431%
CCC(CNC(=O)c1cc(-c2ccco2)nc2c(C(N)=O)ncn12)c1ccccc1 (centres unmarked) [CBK297779] | 171.718%
CC(=O)N1CCc2cc(NC(=O)c3cc4cc(C)ccc4o3)ccc21 [CBK281470] | 132.406%
O=C(Nc1ccccc1)Nc1nc(=O)n(-c2ccccc2)s1 [CBK070710] | 106.208%
COc1ccc(CN2CC(C(=O)O)C2)cc1Cn1cncn1 [CBK307284] | 144.34%
Fc1ccc(-c2cc(CC3(NCc4ccc5c(c4)OCO5)COC3)no2)cc1 [CBK289654] | 101.924%
CCN1CCN(C(=O)c2cc(C)[nH]n2)CC1 [CBK200377] | 118.493%
COc1ccc(CN(Cc2ccsc2)[C@@H]2COC[C@H]2c2ccc(F)cc2)cc1 [CBK286485] | 74.7867%
CC1(C)CC(N(Cc2ccccc2)Cc2ncc[nH]2)CC(C)(C)N1 [CBK283179] | 103.87%
CCn1nc(C)c(-c2cncn2CCCOc2ccccc2C)c1C [CBK281761] | 128.908%
CCNC(=O)N1CC2(CCN(CCOc3ccccc3)CC2)c2ccccc21 [CBK122701] | 99.6486%
Cc1cccc(CN(Cc2ccccc2)C(=O)CCc2ccncc2)n1 [CBK282101] | 137.26%
CC(C)CC(NS(=O)(=O)c1cccc2nsnc12)C(=O)O (centres unmarked) [CBK217288] | 116.517%
CN(C)CC(C)(C)CNC(=O)c1cc(-c2ccc(Cl)cc2)on1 [CBK116561] | 111.204%
Cc1cc(CN(C)C(=O)c2cccc(NC(=O)C3CCCCC3)c2)no1 [CBK305722] | 95.5162%
NS(=O)(=O)c1ccc(CCNC2CC(=O)N(Cc3ccccc3)C2=O)cc1 (centres unmarked) [CBK267439] | 135.227%
Cn1nnc2cc(NCC34CC3CN(C(=O)OC(C)(C)C)C4)ccc21 (centres unmarked) [CBK304758] | 104.468%
Cc1[nH]c2cccc(C(=O)N(C)CCc3cn[nH]c3)c2c1C [CBK283070] | 125.028%
N#Cc1cccc(CN2C[C@H](O)C[C@H]2c2nc(Cc3ccccc3)no2)c1 [CBK288842] | 140.884%
